No constants are given. Whether binding was seen depends on the method and setting. In cells and extracts the contact can be indirect. A result given as binding can be weak or reduced; the word gives no strength.

Amino acid sequences for entries named in this document (tags omitted). A change or cut given only in a name is not applied to a line headed by its entry.
UniProt Q96PU4: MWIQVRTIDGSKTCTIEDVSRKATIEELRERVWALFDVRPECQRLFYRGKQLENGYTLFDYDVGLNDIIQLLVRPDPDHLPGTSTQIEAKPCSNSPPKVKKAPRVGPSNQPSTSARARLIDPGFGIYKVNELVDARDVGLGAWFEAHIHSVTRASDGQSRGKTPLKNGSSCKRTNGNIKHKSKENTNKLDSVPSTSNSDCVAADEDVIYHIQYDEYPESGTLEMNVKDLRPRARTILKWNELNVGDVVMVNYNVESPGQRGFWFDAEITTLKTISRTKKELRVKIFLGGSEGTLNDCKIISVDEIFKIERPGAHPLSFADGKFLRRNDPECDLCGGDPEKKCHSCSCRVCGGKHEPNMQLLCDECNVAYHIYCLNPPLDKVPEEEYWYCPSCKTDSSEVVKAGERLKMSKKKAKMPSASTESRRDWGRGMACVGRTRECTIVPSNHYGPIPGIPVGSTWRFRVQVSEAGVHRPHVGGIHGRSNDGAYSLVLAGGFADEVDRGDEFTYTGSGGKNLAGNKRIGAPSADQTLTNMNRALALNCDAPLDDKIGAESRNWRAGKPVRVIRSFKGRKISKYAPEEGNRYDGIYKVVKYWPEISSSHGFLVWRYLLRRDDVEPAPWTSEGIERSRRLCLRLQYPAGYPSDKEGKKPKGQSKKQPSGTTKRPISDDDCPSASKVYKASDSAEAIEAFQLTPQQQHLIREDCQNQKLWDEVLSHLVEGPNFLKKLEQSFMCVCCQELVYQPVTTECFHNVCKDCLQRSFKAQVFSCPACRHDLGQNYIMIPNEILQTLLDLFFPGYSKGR
UniProt Q13547: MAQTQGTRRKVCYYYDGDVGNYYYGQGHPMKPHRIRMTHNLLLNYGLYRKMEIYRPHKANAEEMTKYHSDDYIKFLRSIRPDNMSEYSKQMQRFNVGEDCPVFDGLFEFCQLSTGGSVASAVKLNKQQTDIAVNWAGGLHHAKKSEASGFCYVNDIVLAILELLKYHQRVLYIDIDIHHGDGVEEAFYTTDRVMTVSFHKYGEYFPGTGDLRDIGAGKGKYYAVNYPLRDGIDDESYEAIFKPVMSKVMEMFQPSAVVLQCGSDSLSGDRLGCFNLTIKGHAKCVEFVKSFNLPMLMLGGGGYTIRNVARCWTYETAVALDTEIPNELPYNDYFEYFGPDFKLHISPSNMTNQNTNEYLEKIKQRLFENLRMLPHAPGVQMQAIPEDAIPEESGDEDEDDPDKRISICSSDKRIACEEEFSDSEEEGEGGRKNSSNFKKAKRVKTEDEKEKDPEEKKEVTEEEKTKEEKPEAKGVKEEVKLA

Experiment [1] deals with UHRF2 ΔPHD (Flag-tagged deletion mutant lacking the PHD domain) (UniProt Q96PU4). Put plainly: co-IP; HEK293 cells 48 h after transfection, NP40 lysis buffer; whole cell extracts immunoprecipitated overnight at 4°C with anti-Flag antibodies, Western blot. On the technique in general: A western blot detects proteins with antibodies after separation by electrophoresis.
The target in experiment [2] is UHRF2 ΔRING (Flag-tagged deletion mutant lacking the RING finger domain) (UniProt Q96PU4). Described as above.

Take HDAC1 (from UniProt Q13547 1-482): the binding entry in experiment [1] and in experiment [2] was “binds” throughout.

Values taken from article PMC5326618.
